Source: PubChem BioAssay AID2685 (National Center for Advancing Translational Sciences (NCATS), 2010)
Some of the results follow. These are further read-outs of the screen, such as a control signal, another cell line or another target. No call is given for them. The list favours compounds with an active or inconclusive main result. Words in brackets tell the shape of the fitted curve; partial curves, single points and poor fits give uncertain potencies.

Assay: qHTS Assay for Lipid Storage Modulators in Drosophila S3 Cells;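 for cell number change: cells counted by Cell Tracker Red CMTPX staining in the red channel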
Settings: BODIPY lipid droplet fluorescence, 18-24 h; for cell number change: measured here: cell count max response, cells fed with added oleic acid
Procedure, shortened: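 Drosophila S3 cells loaded with oleic acid (400 uM, as added) and compounds at several concentrations; lipid droplets imaged by 488-nm laser-scanning cytometry, 500–530 nm intensity and object ratio to cell channel. Percent activity normalized to 20 uM Triacsin C.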

[1] = measured here: lipid fluorescence (Fed channel) AC50, cells fed with added oleic acid
[2] = measured here: cell number channel AC50, cells fed with added oleic acid

Compound	cell number change [%]	AC50 [1]	AC50 [2]
COCc1cc(=O)n2[nH]c(SC)nc2n1	-37.1	10.3 µM [falling, partial curve]	–
CCOC(=O)Cn1c(=O)oc2cc(S(=O)(=O)NC3CCCc4ccccc43)ccc21 (stereo not given)	7.76	14.6 µM [rising, single point]	–
Cn1nccc1C(=O)N1CCCC(N2CCN(c3cccc(C(F)(F)F)c3)CC2)C1 (stereo not given)	20.2	29.1 µM [rising, single point]	0.291 µM [rising, full curve, poor fit]
S=C(c1ccc(-c2ccc(Cl)cc2Cl)o1)N1CCCCC1	-106	29.1 µM [falling, single point]	29.1 µM [falling, single point]
CSCCC(NC(=O)c1ccccc1Cl)C(=O)NNC(=O)c1ccccc1O (stereo not given)	-25	–	3.66 µM [falling, single point]
Clc1cccc(Cl)c1Cn1cnc(=NCc2ccco2)c2[nH]cnc21	-16.6	–	–
CCN1C(=O)/C(=C/N(C(C)=O)c2ccccc2)N(c2ccccc2)C1=S	-0.161	1.46 µM [falling, partial curve, poor fit]	–
COc1ccc(NC(=O)C2CCCNC2)cc1OCC(C)C (stereo not given)	10.6	5.8 µM [falling, single point]	–
O=C(CSc1nnc(SCc2ccc(Cl)cc2)s1)N/N=C/c1c(Cl)cccc1Cl	4.66	1.16 µM [rising, single point]	–
COc1cc(/C=N/NC(=O)CC2C(=O)NN=C2C)ccc1O (stereo not given)	27	29.1 µM [rising, single point]	–
CC(C)OC(=O)c1ccc(COc2ccc3ccc(=O)oc3c2)o1	26.6	18.4 µM [rising, partial curve]	–
O=S(=O)(Nc1ccc(Cl)nn1)c1ccccc1	–	0.82 µM [falling, partial curve]	0.00517 µM [falling, full curve, poor fit]
Cn1c(=O)c2c(ncn2CC(=O)N2CCN(C(=O)c3ccco3)CC2)n(C)c1=O	118	6.51 µM [falling, single point]	4.61 µM [falling, single point]
Cc1cccc(N2CCN(C(=O)Cc3c(C(=O)O)[nH]c4ccc(Cl)cc34)CC2)c1C	-16.2	18.4 µM [falling, single point]	–
COc1ccccc1NC(=S)N=Nc1c(O)[nH]c2ccc(Br)cc12	-8.35	0.0058 µM [falling, full curve, poor fit]	–
COc1ccc2c3c(c(=O)oc2c1OCC(=O)O)CCCC3	–	0.82 µM [falling, full curve, poor fit]	–
N#CC1=C(N)N(c2ccccc2C#N)C2=C(C(=O)CCC2)C1c1ccsc1 (stereo not given)	-21.4	0.92 µM [rising, full curve]	–
Cc1ccc2c(CN3CCN(CCO)CC3)cc(=O)oc2c1C	-19.2	20.6 µM [falling, partial curve]	0.116 µM [falling, single point]

Compound	cell number change [%]	AC50 [1]	AC50 [2]
O=C1C(=O)N(Cc2cccnc2)C(c2cccc(O)c2)/C1=C(\O)c1ccc2c(c1)OCCO2 (stereo not given)	9.68	0.731 µM [falling, full curve, poor fit]	–
Cc1cc(C)n2nc(C(=O)NCc3ccccc3)nc2n1	–	0.58 µM [rising, single point]	–
O=C(O)c1sccc1Oc1ccc(F)cc1[N+](=O)[O-]	7.23	18.4 µM [falling, single point]	–
Cc1cccc2sc(N(CCCN(C)C)C(=O)c3ccc(Cl)s3)nc12	-5.39	0.206 µM [falling, full curve, poor fit]	0.461 µM [falling, single point]
CCCCN1C[C@H](C)[C@@H](CC(=O)NCc2ccccc2)C1=O	26.3	29.1 µM [rising, single point]	–
CC(C)C(=O)Nc1ccc2nn(-c3ccc(F)cc3)nc2c1	1.54	29.1 µM [falling, single point]	–
COc1ccc(CC(=O)OCC(=O)NC(=O)NC(C)C)cc1	-82.3	1.46 µM [falling, full curve, poor fit]	25.9 µM [falling, partial curve]
Cc1nn(-c2ccccc2)c(C)c1C(=O)OCC(=O)Nc1cccc(S(N)(=O)=O)c1	0.389	6.51 µM [falling, single point]	–
Cc1oc(-c2cccs2)nc1CN1CC[C@@](O)(c2ccccc2)[C@H]2CCCC[C@@H]21	-3.32	0.82 µM [falling, full curve, poor fit]	–
COc1ccc(-c2nc(-c3ccncc3)no2)c(OC)c1	5.03	–	–
O=C(O)C1CCCCN1C(=O)c1cc2c(s1)CCCCC2 (stereo not given)	-14.8	0.13 µM [falling, full curve, poor fit]	0.103 µM [falling, full curve, poor fit]
CCC(=O)N1CCCc2cc(S(=O)(=O)N3CCN(c4ccccn4)CC3)ccc21	3.79	11.6 µM [rising, partial curve]	–
S=c1[nH]nc(COc2ccccc2)n1/N=C/C=C/c1ccccc1	-44.3	13 µM [falling, partial curve]	20.6 µM [falling, single point]
O=C(NC1CCCCC1)C1CCN(c2ncccn2)CC1	-10.3	–	–
COc1ccc(-c2noc(N3CCC(C(=O)Nc4cc(OC)c(OC)c(OC)c4)CC3)n2)cc1	–	6.51 µM [rising, single point]	–
CCCCN(C)C/C(O)=C(\C#N)c1nc(-c2ccccc2)cs1	-15.6	6.51 µM [falling, single point]	0.0058 µM [falling, full curve, poor fit]
COc1cccc(CNC(=O)CCc2nnc(C3CCCCC3)o2)c1	-18.6	1.64 µM [falling, full curve, poor fit]	–
O=C(Nc1cccc(Br)c1)c1cc(S(=O)(=O)N2CCOCC2)cs1	–	29.1 µM [falling, single point]	2.31 µM [rising, partial curve]

A second format for 2 compounds above:
Compound | cell number change [%] | AC50 [1] | AC50 [2]
Cc1cccc2sc(N(CCCN(C)C)C(=O)c3ccc(Cl)s3)nc12 | -5.39 | 0.206 µM [falling, full curve, poor fit] | 0.461 µM [falling, single point]
CCCCN1C[C@H](C)[C@@H](CC(=O)NCc2ccccc2)C1=O | 26.3 | 29.1 µM [rising, single point] | –
